The other results are listed elsewhere or left out. These are further read-outs of the screen, such as a control signal, another cell line or another target. No call is given for them. Most of these compounds were active or inconclusive in the main read-out, so they are no random draw. The note in brackets gives the kind of curve behind each potency; many fits are weak.
Experiment: qHTS Assay for Lipid Storage Modulators in Drosophila S3 Cells;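 as to cell number change: cells counted by Cell Tracker Red CMTPX staining in the red channel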
Settings: BODIPY lipid droplet fluorescence, 18-24 h; for cell number change: measured here: cell count max response, cells fed with added oleic acid
In short: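 Drosophila S3 cells loaded with oleic acid (400 uM, as added) and compounds at several concentrations; lipid droplets imaged by 488-nm laser-scanning cytometry, 500–530 nm intensity and object ratio to cell channel. Percent activity normalized to 20 uM Triacsin C.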

[1] = measured here: cell number channel AC50, cells fed with added oleic acid
[2] = measured here: lipid fluorescence (Fed channel) AC50, cells fed with added oleic acid

| Structure (SMILES) | cell number change [%] | AC50 [1] | AC50 [2] |
| --- | --- | --- | --- |
| COc1ccc(-c2cc(=O)oc3cc(OCC(=O)Nc4ccc(CCO)cc4)ccc23)cc1 | 14.9 | – | – |
| O=C(CCC1COc2ccccc2O1)NCc1ccccc1 (configuration not stated) | 11.6 | – | – |
| CCn1c2ccc(F)cc2c2nnc(SCCN3CCCCC3)nc21 | 13.5 | 920 nM [rising, full curve, poor fit] | 41.1 nM [rising, full curve, poor fit] |
| CCOc1cc(/C=C2\C(=O)N(CCc3ccc(OC)c(OC)c3)C(C)=C2C(=O)OC)ccc1O | 26.8 | – | 20600 nM [falling, single point] |
| CCCC1(C(=O)OCC)NC(c2ccc(N(C)C)cc2)C2C(=O)N(c3ccc(OCC)cc3)C(=O)C21 (configuration not stated) | -1.05 | – | – |
| CCOC(=O)c1cc(C#N)c(Oc2cccc(C(F)(F)F)c2)nc1-c1ccccc1 | – | – | 2060 nM [rising, partial curve] |
| COc1ccc(C(=O)CSc2nc3ccccc3n2CC(=O)NC(C)(C)C)cc1 | 14.9 | 326 nM [rising, full curve] | 1840 nM [rising, full curve] |
| CC(CCc1ccco1)NC(=O)c1cccc2c1C(=O)N(C1CCCCC1)C2 (configuration not stated) | -20.2 | – | 29100 nM [falling, single point] |
| O=C(O)C(Sc1ccncn1)c1ccccc1 (configuration not stated) | – | – | 103 nM [falling, single point] |
| CC(C)NC(=O)COC(=O)c1cccc(NS(=O)(=O)/C=C/c2ccccc2)c1 | – | – | 20600 nM [rising, single point] |
| O=C(c1nn2c(C(F)(F)F)cc(-c3ccc(F)cc3)nc2c1Cl)N1CCOCC1 | -13.5 | – | 5800 nM [rising, partial curve] |
| COc1ccc(NC(=O)c2ccccc2N(Cc2ccccc2)S(C)(=O)=O)c(OC)c1 | -2.46 | – | – |
| COc1ccc(C(=O)Cn2nnc(-c3ccccc3NC(=O)C3CC3)n2)cc1 | 1.82 | – | – |
| Cc1ccccc1NC(=O)c1cnc(Nc2nc3ccccc3s2)nc1C | 12.6 | – | – |
| CC1(C)Cc2c(sc(NC(=O)c3ccc(S(=O)(=O)N4CCCCCC4)cc3)c2C#N)C(C)(C)N1 | -9.05 | – | – |
| CCOC(=O)C1=C(CSc2nc3c(cc2C#N)CN(C)CC3)OC(N)=C(C#N)C1c1ccc(Cl)cc1 (configuration not stated) | 18.6 | – | – |
| COc1ccccc1C1c2c(C)nn(-c3ccccc3)c2NC(=O)C1NC(=O)c1ccccc1 (configuration not stated) | -2.34 | 116 nM [rising, full curve, poor fit] | 651 nM [rising, partial curve, poor fit] |
| CC(C)C(=O)Nc1ccc(C(=O)NNC(=O)C(c2ccccc2)c2ccccc2)cc1 | -7.95 | – | 23100 nM [rising, single point] |
| Cc1cc(-c2nnc3n2N=C(c2ccc(-c4ccccc4)cc2)CS3)n[nH]1 | -43.7 | – | 13000 nM [falling, partial curve, poor fit] |
| COc1ccccc1C(=O)NCCC(=O)NCC(c1ccco1)N1CCCC1 (configuration not stated) | 27.9 | – | 291 nM [rising, partial curve, poor fit] |
| CCOCCOC(=O)COc1ccc(N2C(=O)c3ccccc3C2=O)cc1 | 0.0096 | – | 103 nM [falling, full curve, poor fit] |
| C=CCn1c(SCC(=O)Nc2ccc(N3CCOCC3)cc2)nnc1-c1ccncc1 | 1.28 | – | 29100 nM [rising, single point] |
| COc1ccc(S(=O)(=O)Nc2ccc(C)c(S(=O)(=O)N3CCOCC3)c2)cc1[N+](=O)[O-] | 64.4 | 3660 nM [falling, single point] | 29100 nM [rising, single point] |
| CCCNC(=O)Nc1ccc2c(c1)nc(C)n2C | 33.8 | 1300 nM [rising, full curve, poor fit] | 20600 nM [rising, partial curve] |
| O=C(c1ccc(F)cc1)C1CCN(C(=O)N2CCOCC2)CC1 | 3.95 | – | 7.31 nM [falling, full curve, poor fit] |
| Cc1cccc(OCC(=O)N/N=C/c2ccccc2C(=O)O)c1 | 34.5 | 184 nM [rising, full curve, poor fit] | – |
| CC(=O)Nc1ccc(S(=O)(=O)NCC(=O)OC(C)c2ccccc2Cl)cc1 (configuration not stated) | -2.49 | – | – |
| COc1ccc(CCNC(=O)c2cccc3c2C(=O)N(C2CCCCC2)C3)cc1OC | -77.2 | 29100 nM [falling, single point] | – |
| O=C(N/N=C/c1coc2ccccc2c1=O)c1ccc(Cl)cc1 | -11 | – | 7310 nM [falling, partial curve] |
| O=C(CSc1nc(=O)n(CCCN2CCOCC2)c2c1CCCC2)Nc1ccc(F)cc1 | -35.5 | – | – |

Only AC50 [2] and cell number change [%], for some of the entries so far:
Structure (SMILES),AC50 [2],cell number change [%]
CCOC(=O)c1cc(C#N)c(Oc2cccc(C(F)(F)F)c2)nc1-c1ccccc1,"2060 nM [rising, partial curve]",–
COc1ccc(C(=O)CSc2nc3ccccc3n2CC(=O)NC(C)(C)C)cc1,"1840 nM [rising, full curve]",14.9

Reference: PubChem BioAssay AID2685 (National Center for Advancing Translational Sciences (NCATS), 2010)
